Data as given in patent publication US20080102477A1.
No constants are given. Whether binding was seen depends on the method and setting. In cells and extracts the contact can be indirect. Some entries that bind do so weakly or less than the wild type.

Sequences of proteins named here, by UniProt entry; tags and fusion partners are left off.
UniProt O60566: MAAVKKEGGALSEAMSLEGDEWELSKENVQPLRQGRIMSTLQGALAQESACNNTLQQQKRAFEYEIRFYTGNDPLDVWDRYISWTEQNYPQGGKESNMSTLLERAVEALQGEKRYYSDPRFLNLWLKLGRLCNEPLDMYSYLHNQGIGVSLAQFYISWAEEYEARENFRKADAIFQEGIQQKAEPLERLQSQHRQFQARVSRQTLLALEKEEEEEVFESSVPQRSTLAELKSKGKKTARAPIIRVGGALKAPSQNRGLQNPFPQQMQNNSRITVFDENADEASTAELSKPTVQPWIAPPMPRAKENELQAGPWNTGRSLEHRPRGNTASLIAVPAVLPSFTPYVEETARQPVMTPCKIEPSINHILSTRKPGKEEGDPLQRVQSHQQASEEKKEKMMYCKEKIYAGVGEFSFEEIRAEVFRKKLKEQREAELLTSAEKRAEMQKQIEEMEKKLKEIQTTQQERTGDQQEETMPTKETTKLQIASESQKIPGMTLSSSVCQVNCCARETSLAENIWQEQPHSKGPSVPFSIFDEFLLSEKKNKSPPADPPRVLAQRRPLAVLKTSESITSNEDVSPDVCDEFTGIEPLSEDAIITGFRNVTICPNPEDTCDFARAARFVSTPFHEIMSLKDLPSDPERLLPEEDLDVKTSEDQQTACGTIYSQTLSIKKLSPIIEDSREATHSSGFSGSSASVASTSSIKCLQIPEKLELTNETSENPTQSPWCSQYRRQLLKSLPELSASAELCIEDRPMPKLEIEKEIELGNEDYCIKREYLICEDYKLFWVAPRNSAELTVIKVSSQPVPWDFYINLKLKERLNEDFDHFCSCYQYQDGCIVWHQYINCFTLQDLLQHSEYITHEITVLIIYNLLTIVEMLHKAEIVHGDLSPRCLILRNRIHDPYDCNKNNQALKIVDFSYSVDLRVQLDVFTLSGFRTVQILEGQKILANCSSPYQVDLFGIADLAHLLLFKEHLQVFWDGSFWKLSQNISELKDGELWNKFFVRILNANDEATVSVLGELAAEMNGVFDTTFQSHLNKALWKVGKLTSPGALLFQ
UniProt P51587: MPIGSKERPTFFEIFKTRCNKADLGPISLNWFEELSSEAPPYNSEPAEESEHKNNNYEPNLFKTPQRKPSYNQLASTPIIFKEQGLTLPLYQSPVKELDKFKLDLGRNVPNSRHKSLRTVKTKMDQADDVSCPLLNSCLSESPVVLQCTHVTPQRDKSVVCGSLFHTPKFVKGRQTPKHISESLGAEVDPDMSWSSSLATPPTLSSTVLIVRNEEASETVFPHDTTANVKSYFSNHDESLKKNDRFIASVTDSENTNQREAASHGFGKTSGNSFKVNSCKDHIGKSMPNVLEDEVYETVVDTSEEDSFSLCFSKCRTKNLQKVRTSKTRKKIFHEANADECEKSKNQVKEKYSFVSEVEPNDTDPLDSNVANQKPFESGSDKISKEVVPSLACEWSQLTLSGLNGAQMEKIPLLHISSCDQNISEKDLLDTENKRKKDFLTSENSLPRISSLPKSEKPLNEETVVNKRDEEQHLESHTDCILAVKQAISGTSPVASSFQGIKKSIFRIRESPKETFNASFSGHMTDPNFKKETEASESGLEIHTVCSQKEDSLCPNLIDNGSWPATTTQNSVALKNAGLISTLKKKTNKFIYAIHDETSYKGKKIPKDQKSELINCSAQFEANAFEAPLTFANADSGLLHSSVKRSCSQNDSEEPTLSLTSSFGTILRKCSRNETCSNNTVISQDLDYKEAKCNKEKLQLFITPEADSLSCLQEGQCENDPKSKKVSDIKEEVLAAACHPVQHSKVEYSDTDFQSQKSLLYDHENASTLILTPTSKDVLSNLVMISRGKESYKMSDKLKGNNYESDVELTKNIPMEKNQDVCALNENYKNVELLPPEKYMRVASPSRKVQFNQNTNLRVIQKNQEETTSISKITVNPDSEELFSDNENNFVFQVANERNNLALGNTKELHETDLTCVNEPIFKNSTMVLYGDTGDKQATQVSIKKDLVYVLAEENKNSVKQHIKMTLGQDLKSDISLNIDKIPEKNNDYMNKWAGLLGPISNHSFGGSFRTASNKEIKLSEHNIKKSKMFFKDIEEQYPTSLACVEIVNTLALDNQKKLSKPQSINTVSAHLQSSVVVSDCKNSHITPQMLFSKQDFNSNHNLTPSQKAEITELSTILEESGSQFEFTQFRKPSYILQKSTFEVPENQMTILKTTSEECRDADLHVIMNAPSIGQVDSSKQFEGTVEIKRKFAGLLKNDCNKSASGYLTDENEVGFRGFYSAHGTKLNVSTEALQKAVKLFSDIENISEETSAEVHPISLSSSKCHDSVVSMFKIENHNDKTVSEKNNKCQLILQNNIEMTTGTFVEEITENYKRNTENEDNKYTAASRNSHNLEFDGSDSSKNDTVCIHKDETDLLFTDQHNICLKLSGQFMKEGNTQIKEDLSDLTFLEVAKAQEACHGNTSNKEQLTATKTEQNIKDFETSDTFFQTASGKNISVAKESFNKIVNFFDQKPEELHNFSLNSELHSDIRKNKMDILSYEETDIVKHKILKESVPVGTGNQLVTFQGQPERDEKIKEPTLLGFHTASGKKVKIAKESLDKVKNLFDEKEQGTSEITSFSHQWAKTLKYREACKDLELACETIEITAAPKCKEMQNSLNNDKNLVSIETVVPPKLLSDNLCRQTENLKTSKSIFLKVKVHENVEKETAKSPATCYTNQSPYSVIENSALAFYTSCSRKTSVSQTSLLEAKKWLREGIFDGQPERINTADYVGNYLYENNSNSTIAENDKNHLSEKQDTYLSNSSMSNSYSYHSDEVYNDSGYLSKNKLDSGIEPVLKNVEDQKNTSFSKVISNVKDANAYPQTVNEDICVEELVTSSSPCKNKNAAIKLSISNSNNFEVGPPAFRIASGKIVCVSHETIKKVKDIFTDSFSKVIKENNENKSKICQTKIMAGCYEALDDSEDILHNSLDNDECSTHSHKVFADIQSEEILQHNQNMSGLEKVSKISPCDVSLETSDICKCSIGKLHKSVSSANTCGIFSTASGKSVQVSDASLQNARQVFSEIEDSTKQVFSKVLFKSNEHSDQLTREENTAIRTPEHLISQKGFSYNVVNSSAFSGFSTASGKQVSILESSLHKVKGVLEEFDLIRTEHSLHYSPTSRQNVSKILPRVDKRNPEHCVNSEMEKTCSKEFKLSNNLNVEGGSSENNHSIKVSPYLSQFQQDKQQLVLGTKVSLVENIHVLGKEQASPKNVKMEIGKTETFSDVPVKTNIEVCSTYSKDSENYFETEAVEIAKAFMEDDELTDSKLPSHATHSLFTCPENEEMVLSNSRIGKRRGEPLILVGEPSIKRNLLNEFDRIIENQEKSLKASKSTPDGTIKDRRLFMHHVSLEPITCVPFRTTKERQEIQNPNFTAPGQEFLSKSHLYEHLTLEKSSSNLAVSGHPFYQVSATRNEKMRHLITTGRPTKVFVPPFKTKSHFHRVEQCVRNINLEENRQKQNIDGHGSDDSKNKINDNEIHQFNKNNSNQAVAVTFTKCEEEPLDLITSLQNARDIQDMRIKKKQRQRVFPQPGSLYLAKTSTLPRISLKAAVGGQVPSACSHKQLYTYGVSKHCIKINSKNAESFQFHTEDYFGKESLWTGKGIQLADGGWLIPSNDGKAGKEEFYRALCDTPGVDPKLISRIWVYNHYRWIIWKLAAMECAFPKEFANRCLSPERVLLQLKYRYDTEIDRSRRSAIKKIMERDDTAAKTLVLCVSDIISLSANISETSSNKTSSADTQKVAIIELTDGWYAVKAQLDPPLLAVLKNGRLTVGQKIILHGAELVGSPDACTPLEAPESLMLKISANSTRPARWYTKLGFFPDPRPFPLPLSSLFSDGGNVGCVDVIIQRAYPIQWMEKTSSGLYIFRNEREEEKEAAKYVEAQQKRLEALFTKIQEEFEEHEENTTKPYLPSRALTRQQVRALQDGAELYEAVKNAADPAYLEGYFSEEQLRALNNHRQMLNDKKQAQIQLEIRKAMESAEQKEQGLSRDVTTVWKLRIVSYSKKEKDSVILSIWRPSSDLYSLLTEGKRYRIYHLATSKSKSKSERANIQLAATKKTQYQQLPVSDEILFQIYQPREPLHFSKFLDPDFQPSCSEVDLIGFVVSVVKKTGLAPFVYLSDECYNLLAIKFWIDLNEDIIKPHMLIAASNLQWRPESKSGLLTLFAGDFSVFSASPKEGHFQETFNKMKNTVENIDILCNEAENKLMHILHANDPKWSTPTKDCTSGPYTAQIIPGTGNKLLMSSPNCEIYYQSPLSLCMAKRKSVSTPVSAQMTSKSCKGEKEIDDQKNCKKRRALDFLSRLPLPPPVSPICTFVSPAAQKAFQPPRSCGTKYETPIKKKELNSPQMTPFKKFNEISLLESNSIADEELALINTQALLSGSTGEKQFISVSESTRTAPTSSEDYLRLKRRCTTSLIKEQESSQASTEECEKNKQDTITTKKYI

Assays:
BubR1 (human) [1] = molecular target: BubR1 (human) (UniProt O60566); experiment: co-immunoprecipitation from 293T total cell lysate: IP with anti-BRCA2, Western blot with anti-BubR1
BubR1 (human) [2] = molecular target: BubR1 (human) (UniProt O60566); experiment: co-immunoprecipitation, Western blot (FIG. 2 legend)

## BRCA2 (from UniProt P51587 1-3418)
BubR1 (human) [1]
  binding: binds
BubR1 (human) [2]
  binding: binds
